Hit rate of the full screen: of about 53,000 sequences, about 3,700 (7%) were called active.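 Rule for the calls: active = gene knockdowns whose robust z-score for IL-1 alpha signal is at least 2 or at most -2, so actives lie on both sides; inactive = the rest.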 The list shows a part of the results.

The assay is described as follows: Components of the Cytosolic LPS Sensing Pathway: Gene Identification via Genome-wide siRNA Screen.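 Note: robust z of the log signal after scaling to non-targeting control siRNA wells of the plate.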 To be noted: RAW264.7 macrophages, IL-1a HTRF, actives lie on both sides, screened at 100 nM (by protocol), cells primed 5 h with Pam3CSK4 first. A digest of the protocol:
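IL-1a HTRF of supernatants after 24 hour LipidA transfection of Pam3CSK4-primed (5 hours) RAW264.7 cells, 48h post-siRNA transfection (100 nM). Scores: percent of plate negative-control median, then log-based robust z-score.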
Consider GCGAUUAGGCAAGUUCCAATT against Lyrm2, for which the z-score was inactive: 0.674. In the case of GGCCUUGAAUGAGCAUCAUTT against Krr1 it was inactive: 0.548.

For GGACUUGCGCGACAAGAUUTT against Krt19, the z-score is inactive: 0.547.

In the case of GGAAAUGGCACCAAUGUCATT against Slc25a24, the z-score is inactive: -0.38. Regarding GGGAUAUUCAAAAUACUAGTT against Hells, the z-score is inactive: 0.653. Take GCUGAGAAAUUGUCUACGCTT against Bex3: the z-score is inactive: -0.115. To GGUCCAAUUACUGAAGGUUTT against Spaca7 belongs active: 2.09; to GGUCCUCCAAAAAAAGCAATT against Prl3c1, inactive: 0.497. For GCCGUCAUGUCUACAAUAATT against Clmp, the z-score was inactive: 0.335. For GGAGAACAUAAUGAAAUCUTT against Fam50a, the z-score was inactive: -0.0744. As for GGUGGUACGCAGACUAAAUTT against Ulk1, the z-score was active: 2.94. On to GGAGUGUUGGGAGCAGGAATT against Tnni1, for which the z-score is active: 2.71. To GCAGAGUGCUCGUAGAGUGTT against Heatr5a belongs inactive: 0.96; to GCCUGUUUUAUUGUGUGACTT against Gna13, inactive: -0.0703; to GGAAAUCACCAGAGCUGAUTT against Atp6v0a2, inactive: -1.14. As for GGUUGUGAUAUUAGGUCCGTT against Ak8, the z-score is inactive: 1.4.

As for GGAGAUCCCGUCACUAUCUTT against Lrrc61, the z-score was inactive: -0.439.

With GCCUCUGAUGUAAACAGGATT against Nr2c2ap, the z-score is inactive: 0.883. GGAGAUGGCGAAAACUCACTT against Rrbp1: the z-score was inactive: -0.796. Turning to GGUGAGUUCAUGGUUUCCUTT against Txnl4b, the z-score was inactive: -0.142. Take GGGAGGAGUCAUUCAUGAGTT against Cpsf4l: the z-score was inactive: 0.425. In the case of GCUGAAGUGCAAGAACAAATT against Dmd, the z-score was inactive: 1.91.

For the sequence “GGUUCCCUUUUUCAUCUAATT against 4632433K11Rik”, the z-score was active: 3.08. In the case of GGGAAAAAUGGUCAGAUUATT against Colgalt2, the z-score is inactive: -1.08.

On to CCCAGACUCAGUUUUAACUTT against Spsb4, for which the z-score was inactive: -1.88. In the case of GGAGAAGGAGAUGUCCAAUTT against Guca2b it was inactive: 0.777. As to GCUCCCAAGUUUACCCAGCTT against Mybphl, the z-score is inactive: 0.505. In the case of “GGACUGAGAACCAAAGCUGTT against D630044L22Rik” it was active: -3.15; in that of GGAGUCCACUAUGAGUACGTT against Thsd4, inactive: -0.143. On to GGCCAUCCAGUGCCUACAATT against Edc4, for which the z-score is inactive: 0.697. With GCCGUAGAUUUCCUUGAGUTT against Isca1, the z-score is inactive: -0.0435. To GGAGUUCGAAAGUAUCUAUTT against Rcvrn belongs inactive: -1.26.

Consider GGAAUCAGACACGUUCAUCTT against Prkar2a, for which the z-score is inactive: 0.297. In the case of GGACUACUUCCCAAGAAUUTT against Gle1, the z-score was inactive: 0.365. For the sequence GCACUUUCGGUCAAGUGGATT against Pou2f3, the z-score is inactive: -0.534.

For GGCGGUGACAGAGCUGAAUTT against Ywhah, the z-score is inactive: 1.35.

Turning to CGUGCAUUCUUAUCACAGCTT against Hsbp1, the z-score is inactive: 0.987.

Regarding GGAGGUUACAUAACAGGUGTT against Itsn2, the z-score was inactive: 1.86.

For GGUGGGUCAAUGAUCCAGGTT against Fabp9, the z-score was active: -2.11. In the case of GGAAGAAAGGAAAAUCAGATT against Nsmaf it was inactive: 0.337. For GCUGGAGUGUCAGUCAUAUTT against Reg4, the z-score was active: 3.35. Consider GCUGGCCAAACUUGACAGUTT against Wwc1, for which the z-score was active: 2.05. Consider GGGUCCUUUGAAAUUGUGGTT against Usp37, for which the z-score is inactive: -0.0104. Turning to GGAAGCAUUCAAGAACAUCTT against Rab11b, the z-score was inactive: 1.43. For CCAGGGACUUAGGUUUAUCTT against Thap11, the z-score was inactive: -0.625.

Take GGUUAUCCAGAGAGAAGGATT against Asxl2: the z-score was inactive: 0.399. In the case of GGUUCCUCAAGAUCAUCAUTT against P2ry13 it was inactive: 0.051; in that of GCUAGGAAGCAGUUAAUGATT against Usp49, inactive: 0.124; in that of GGUCAUUUCUGGCAAGGUUTT against Pnpla3, inactive: -0.671. Regarding GGGCAAUUAUCUUUGUUAUTT against Olfr589, the z-score is inactive: -0.0712.

Regarding GGAAGACAUUACCAAGUCATT against Impa1, the z-score was inactive: -0.577.

As to CCGCACAGACCAUAGUAGATT against Pudp, the z-score is inactive: 0.261. Turning to CCCUUACAUACCAAAGAAATT against Pkp4, the z-score was inactive: 0.229. With GGAUAAAAGAGAAGAGUGUTT against Glmn, the z-score is inactive: -0.0461.

With CCCGAUAUAAUCAAGAAACTT against Pld3, the z-score was inactive: -1.42.

Take GCCUUUUAACUUAUUCUUGTT against Hey2: the z-score is inactive: 0.0356. With GGAAAAGGAAGAAGAGGCATT against Zfpm1, the z-score was inactive: -1.63. As to GGUCCUAAACCACUUCAGCTT against Gtf2f1, the z-score is inactive: 1.54. As for GCCUAGGAUAUGUAUUAACTT against Rhbdd2, the z-score was inactive: -0.631. As for GGAUGACCCACUGGUGACUTT against Gng8, the z-score is inactive: -0.97. In the case of GGCAGUGGCUUGGAUAAAUTT against Amdhd2, the z-score was inactive: -0.609. For the sequence CGAAUUAUCCAAACAAAUGTT against Shcbp1, the z-score is inactive: 0.558. On to GGAACGUAUACCUAUACCCTT against Huwe1, for which the z-score is inactive: -0.263.

As to GGUUAUAACACCAGAUGGGTT against Iah1, the z-score was inactive: 0.62. In the case of GGCUCAGAUGAUGAGCUUUTT against Hic2, the z-score was inactive: 0.498. In the case of GCCUGUUUUGCCUAAAGUGTT against Hnrnpdl it was inactive: 0.367; in that of GGAGGUUCCUUCUUCAUCUTT against Cysrt1, inactive: 1.03. For “CGCAUAUCUAGAAUGGUUATT against 2810021J22Rik”, the z-score was inactive: 1.74. Consider GGACAAGUACUUCAUGAUCTT against Gosr2, for which the z-score was inactive: -0.226. On to GGAUAAGACAGUUCCUAGCTT against Tap1, for which the z-score was inactive: -0.921. As for “GCCACCAUUAGGACAAGAUTT against 4933409G03Rik”, the z-score is inactive: -0.17. Take GCAGGUGCCAACAUUAUUGTT against Pnpla2: the z-score was inactive: 0.0636.

Take GGAACUGUUGAAGAAACUGTT against Nudt16l2: the z-score is inactive: -0.411. In the case of GGCUGCCUAUUAUGAGAAGTT against Acy3 it was inactive: 1.92; in that of CCAAAGGGAAGAGUUAUGCTT against Tmem126b, active: 2.34. Turning to GGUAGGCUGUGUUUGUCGGTT against Poldip3, the z-score was inactive: 1.53. In the case of GGCACUUACUUCUGAGAAGTT against Pheta1, the z-score was inactive: 0.875.

As to GGAUAACGAACAUUUCAUCTT against Ntrk2, the z-score was inactive: -0.236.

Take GCUUUUUGUGGAGCAUUUUTT against Olfr1261: the z-score was inactive: -0.215. Regarding GCAGCAUUAGUGACUUAAUTT against Mcph1, the z-score was inactive: -0.941.

Take GGACCUACAGCUGUGUGUUTT against Hjv: the z-score is inactive: -0.485. Take GGCCCAUGUUUAUUUAUGGTT against Hsd3b6: the z-score is inactive: -0.947.

Regarding GGAAGAUGUUGAUAAUAGATT against Dmxl2, the z-score was inactive: -0.0393. In the case of GCCUGAUAGUGGUGGACAGTT against Tmem45a2 it was active: 3.29; in that of GGCCUCUCUACUCCUCAACTT against Ern2, inactive: 0.182; in that of GGUGCAACAACUUAGUUUATT against Hspa2, inactive: 1.16.

Take GGUCCGAUUUCAAGCCAUGTT against Ucp3: the z-score is inactive: 1.91.

Regarding GGUGCACUGUACAUGUAACTT against Fpr-rs3, the z-score was inactive: 0.12. On to GGAACAAGAAAAUCUUGACTT against Ifna9, for which the z-score was inactive: -0.189.

Turning to CCAUGAAGACUCAUCUCUGTT against Cadm3, the z-score is inactive: 0.602.

GGACUUACUGAAAGAUAUGTT against Satb1: the z-score was inactive: -0.893. Turning to GCAUUUCCGGGUUGUUACATT against Pelp1, the z-score is inactive: 0.23. For the sequence GCGACGAUUGUUAAAGCUGTT against Top1mt, the z-score was inactive: -1.04. Regarding CGCGGCAAAUGUUUUAAAUTT against Scd3, the z-score was inactive: 0.303. Turning to GUACGGCAACAUGACCCAGTT against Cd74, the z-score is inactive: 0.385. To GGAACAGGCAACAUGAUUGTT against Nlgn3 belongs inactive: 0.376.

Take GCUACAAGACUUUUACCAGTT against Tnfsf18: the z-score was inactive: -0.0821. In the case of GCAGGUCUUUACCAGUAUUTT against Fcgr2b it was inactive: 0.196; in that of GACUUUCAUUCACAUAAUGTT against Vmn1r11, inactive: -0.307; in that of GGAACAACUCCUGUUCCCATT against Obscn, inactive: 1.85. To GCUCAUCCAUCGUAGUAAGTT against Fam170a belongs inactive: -0.482. With CCUCAGGAUACAGACCCACTT against Frg2f1, the z-score was inactive: -0.35. In the case of CGGCCUAUCUCUUGGUUUATT against Usp18 it was inactive: -1.86; in that of CGAGGCUAUGAAAUCAGCCTT against Gfi1b, inactive: 0.771. In the case of GAUGAAGAAGUAGAAAUGGTT against Ston2 it was inactive: -0.423; in that of CCCAUAAAACAGUCAACUATT against Ankra2, inactive: -1.68. As to GCCAGACUAAGCUUAAGACTT against Clca3a2, the z-score was inactive: -1.09.

The values are drawn from PubChem BioAssay AID1508600 (Functional Genomics Laboratory (NCATS/FGL), 2020).
